In assay [1] the target is MKK10–2 (rice (Oryza sativa L., cultivar ZH11)). The assay is described as follows: two-hybrid; Matchmaker Gold system, Y2HGold yeast; bait in pGBKT7, prey in pGADT7; co-transformants on SD/-Leu/-Trp, then streaked on quadruple-dropout medium (-Ade/-His/-Leu/-Trp) with 200 ng/mL Aureobasidin A; growth read.
Assay [2] concerns the target MKK3 (rice (Oryza sativa L., cultivar ZH11)). The description is as above.
The target in assay [3] is GST-MKK3 (rice (Oryza sativa L.)). The assay can be described thus: pull-down; GST-fusion protein from E. coli BL21 on Glutathione Sepharose 4B beads (4 °C, 1 h, washed three times with lysis buffer); His-fusion protein added, 4 °C overnight; washed, eluted with reduced glutathione; immunoblot with anti-His. On the technique in general: Immunoblotting shows a protein as a band on a membrane.

In article PMC6342742 one finds binding data, which are given here for nine molecules.

No constants are given. Whether binding was seen depends on the method and setting. For some assays here: Binding calls can cover weak binding; strength is not graded here. For some assays here: Binding seen in cells or lysates may run through a third protein. For some assays here: Where a sequence is shown, tags or fusion partners need not be part of it.

B1: OsMAPK20–5 (protein, UniProt Q67C40 1-569)
chain: MDFFSEYGDSSRYKIQEIVGKGSYGVVCSAIDQHTGDKVAIKKIHNIFEHLSDAARILREIKLLRLLRHPDIVEIKHIMLPPSRRDFKDIYVVFELMDTDLHQVIKANDDLTKEHHQFFLYQMLRALKYIHTANVYHRDLKPKNILANANCKLKICDFGLARVAFNDTPTTVFWTDYVATRWYRAPELCGSFFSKYSPAIDTWSIGCIFAEILTGKPLFPGKNVVHQLDLMTDLLGTPSMDAISRIRNDKARRYLSSMRRKQPVPFSEKFPNVDPLALKLLQRLLAFDPKDRPTAEEALADPYFKGLAKVEREPSCQPISKMEFEFERRKVTKDDIKELIFREILEYHPQLLKDYMNGSENTSFLYPSAVDNFRRQFAILEENGGKSGALDRKHVSLPRATTVHSTSIPPNEGLDATSQVTQRIPTARPGRTVGPVLPFENPGAADPHSARRVVRNPMVPPAAANKSGYSYNLKSDYSDRQHQEELEKDRVQYRPAQHLMDAKVAPDTAPDIRSSQYYFTRSAPRTDLTDRAALQGSMLYGIAPFNGIAAVAGGYSKVGAVQYGVSRMY
Consider B1, for which the binding result in assay [1] was “no binding”.

B2: OsMAPK4 (protein, UniProt Q336X9 1-376)
chain: MDSSSGGAGGGGGAQIKGMGTHGGRYVLYNVYGNFFEVSSKYAPPIRPIGRGAYGIVCAAVNSENGEEVAIKKIGNAFDNHIDAKRTLREIKLLRHMDHENIIAIKDIIRPPRRDNFNDVYIVSELMDTDLHQIIRSNQPLTDDHCQYFLYQLLRGLKYVHSANVLHRDLKPSNLFLNANCDLKIADFGLARTTTETDLMTEYVVTRWYRAPELLLNCSQYTAAIDVWSVGCILGEIVTRQPLFPGRDYIQQLKLITELIGSPDDSSLGFLRSDNARRYMKQLPQYPRQDFRLRFRNMSAGAVDLLEKMLVFDPSRRITVDEALHHPYLASLHDINEEPTCPAPFSFDFEQPSFTEEHIKELIWRESLAFNPDPPY
Consider B2, for which the binding result in assay [1] was “no binding”.

B3: MAPK7 (protein, UniProt Q5Z859 1-369)
chain: MAMMVDPPNGMGNQGKHYYTMWQTLFEIDTKYVPIKPIGRGAYGIVCSSINRATNEKVAIKKINNVFDNRVDALRTLRELKLLRHLRHENVIALKDIMMPVHRRSFKDVYLVYELMDTDLHQIIKSSQPLSNDHCQYFLFQLLRGLKYLHSAGILHRDLKPGNLLVNANCDLKICDFGLARTNNTKGQFMTEYVVTRWYRAPELLLCCDNYGTSIDVWSVGCIFAELLGRKPIFPGTECLNQLKLIVNVLGTMSEADIEFIDNPKARKYIKTLPYTPGIPLTSMYPQAHPLAIDLLQKMLVFDPSKRISVTEALEHPYMSPLYDPSANPPAQVPIDLDIDENLGVDMIREMMWQEMLHYHPEVVAGVNM
As for B3, the results for the binding result in assay [1] and in assay [2] were “no binding” and “binds”, respectively.

B4: His-MAPK7 (protein, UniProt Q5Z859 1-369)
chain: MAMMVDPPNGMGNQGKHYYTMWQTLFEIDTKYVPIKPIGRGAYGIVCSSINRATNEKVAIKKINNVFDNRVDALRTLRELKLLRHLRHENVIALKDIMMPVHRRSFKDVYLVYELMDTDLHQIIKSSQPLSNDHCQYFLFQLLRGLKYLHSAGILHRDLKPGNLLVNANCDLKICDFGLARTNNTKGQFMTEYVVTRWYRAPELLLCCDNYGTSIDVWSVGCIFAELLGRKPIFPGTECLNQLKLIVNVLGTMSEADIEFIDNPKARKYIKTLPYTPGIPLTSMYPQAHPLAIDLLQKMLVFDPSKRISVTEALEHPYMSPLYDPSANPPAQVPIDLDIDENLGVDMIREMMWQEMLHYHPEVVAGVNM
On to B4, for which the binding entry in assay [3] is recorded as “binds”.

B5: MAPK14 (protein, UniProt Q6Z437 1-370)
chain: MAIMVDPPNGMGNQGKYYYSMWQTLFEIDTKYVPIKPIGRGAYGIVCSSINRETNEKVAIKKIHNVFDNRVDALRTLRELKLLRHLRHENVIALKDIMMPVHRRSFKDVYLVYELMDTDLHQIIKSPQGLSNDHCQYFLFQLLRGLKYLHSAEILHRDLKPGNLLVNANCDLKICDFGLARTNSSKGQFMTEYVVTRWYRAPELLLCCDNYGTSIDVWSVGCIFAELLGRKPIFPGTECLNQLKLIVNVLGTMSESDLEFIDNPKARRYIKSLPYTPGVPLASMYPHAHPLAIDLLQKMLIFDPTKRISVTEALEHPYMSPLYDPSANPPAQVPIDLDIDENISADMIREMMWHEMLHYHPEVVAAMSAR
For the molecule B5, the binding result in assay [1] is listed as “no binding”; in assay [2], “binds”.

B6: His-MAPK14 (protein, UniProt Q6Z437 1-370)
chain: MAIMVDPPNGMGNQGKYYYSMWQTLFEIDTKYVPIKPIGRGAYGIVCSSINRETNEKVAIKKIHNVFDNRVDALRTLRELKLLRHLRHENVIALKDIMMPVHRRSFKDVYLVYELMDTDLHQIIKSPQGLSNDHCQYFLFQLLRGLKYLHSAEILHRDLKPGNLLVNANCDLKICDFGLARTNSSKGQFMTEYVVTRWYRAPELLLCCDNYGTSIDVWSVGCIFAELLGRKPIFPGTECLNQLKLIVNVLGTMSESDLEFIDNPKARRYIKSLPYTPGVPLASMYPHAHPLAIDLLQKMLIFDPTKRISVTEALEHPYMSPLYDPSANPPAQVPIDLDIDENISADMIREMMWHEMLHYHPEVVAAMSAR
Consider B6, for which the binding result in assay [3] is “binds”.

B7: OsMAPK16 (protein, UniProt Q53N72 1-498)
chain: MDFFTEYGEGNRYKIEEVIGKGSYGVVCSALDTHTGEKVAIKKINDIFEHVSDATRILREIKLLRLLRHPDIVEIKHILLPPSRREFKDIYVVFELMESDLHQVIKANDDLTPEHYQFFLYQLLRGLKYIHTANVFHRDLKPKNILANADCKLKICDFGLARVAFSDTPTAIFWTDYVATRWYRAPELCGSFFSKYTPAIDIWSIGCIFAELLTGKPLFPGKNVVHQLDIITDLLGTPSTEAISRIRNEKARRYLSSMRRKKPIPFTQKFPNADPLALRLLERMLSFEPKDRPNAEEALADPYFRNIANVDREPSAQPVTKLEFEFERRRITKEDIRELIYRDILEYHPNMLREYLEGTESAGFMYPSAVDHFKKQFAYLEEHYAKGSTAAPPERQHNSLPRPSVLYSDDRPQNTANIAEDLSKCVLGDNTQKMHQGSASVCANRVPQGGAARPGKVVGSALRYGNCSTSTAEQYEHRRTDRNPALATNTVSPRGSYP
B7: the binding entry in assay [1] is recorded as “no binding”.

B8: OsMAPK3 (protein, UniProt Q10N20 1-369)
chain: MDGAPVAEFRPTMTHGGRYLLYDIFGNKFEVTNKYQPPIMPIGRGAYGIVCSVMNFETREMVAIKKIANAFNNDMDAKRTLREIKLLRHLDHENIIGIRDVIPPPIPQAFNDVYIATELMDTDLHHIIRSNQELSEEHCQYFLYQILRGLKYIHSANVIHRDLKPSNLLLNANCDLKICDFGLARPSSESDMMTEYVVTRWYRAPELLLNSTDYSAAIDVWSVGCIFMELINRQPLFPGRDHMHQMRLITEVIGTPTDDELGFIRNEDARKYMRHLPQYPRRTFASMFPRVQPAALDLIERMLTFNPLQRITVEEALDHPYLERLHDIADEPICLEPFSFDFEQKALNEDQMKQLIFNEAIEMNPNIRY
B8: the binding result in assay [1] is reported as “no binding”.

B9: OsMAPK17–1 (protein, UniProt Q5Z9J0 1-580)
chain: MGGGGTLVDGFRRLFHRRTASGSNQSSNAGEEAASSDLEVADDPDLVALRSIRIRVPKRKMPLPVESHKKNTVEMEFFTEYGEASQYQIQEVIGKGSYGVVAAAVDTRTGERVAIKKINDVFEHVSDATRILREIKLLRLLRHPDIVEIKHIMLPPSRREFQDIYVVFELMESDLHQVIRANDDLTPEHYQFFLYQLLRALKYIHAANVFHRDLKPKNILANSDCKLKICDFGLARASFNDAPSAIFWTDYVATRWYRAPELCGSFFSKYTPAIDIWSIGCIFAELLTGRPLFPGKNVVHQLDIITDLLGTPSSETLSRIRNEKARRYLSTMRKKHAVPFSQKFRNTDPLALRLLERLLAFDPKDRSSAEEALADPYFASLANVEREPSRHPISKLEFEFERRKLTKDDVRELIYREILEYHPQMLQEYMKGGEQISFLYPSGVDRFKRQFAHLEENYSKGERGSPLQRKHASLPRERVGVSKDGYNQQNTNDQERSADSVARTTVSPPMSQDAQQHGSAGQNGVTSTDLSSRSYLKSASISASKCVAVKDNKEPEDDYISEEMEGSVDGLSEQVSRMHS
As for B9, in assay [1], the binding entry was “no binding”.
